Reference: PubChem BioAssay AID1508597 (Cure First, 2020)
In all, the deposit lists about 2,100 reagents; this is a random part of them. 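Calls flag viability under 80% in either arm, not effects specific to rucaparib; the reference for percent is not stated.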 No sequences are given here. The record does not give: the 100% reference.

- Aim: 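Knock-downs altering ovarian cancer cell survival with or without PARP inhibitor rucaparib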 (primary screen)
- Cells: human ovarian carcinoma lines grown from tumours: OCI-P5x (papillary serous) and OCI-C5x (clear cell)
- Reagent: siRNA pool against human genes, 1.25 pmol siRNA per well
- Timing: 72 h or 96 h, depending on the cell culture
- Treatment: rucaparib 20 µM (about IC30) or vehicle, present until read-out
- Read-out: 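Luminescent ATP-based viability assay read 72 or 96 h after transfection, depending on culture, given as normalised percent viability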
- Scale: viability, normalised: higher = more viable cells remaining
- Rule for the call: 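a well counts as a hit if its normalised viability is under 80 percent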
- Calls: active = viability under 80%; inactive = viability 80% or more

gene,PubChem SID,rucaparib or vehicle,cell line,technical replicate,"viability, normalised (%)",outcome
PDE6D (GeneID 5147),SID405526697,Rucaparib,OCI-C5x (clear cell),1,62.9,active
PDE6D (GeneID 5147),SID405526697,Rucaparib,OCI-C5x (clear cell),2,45.1,active
PDE6D (GeneID 5147),SID405526697,Rucaparib,OCI-C5x (clear cell),3,42.9,active
PDE6D (GeneID 5147),SID405526697,Rucaparib,OCI-P5x (serous),1,73,active
PDE6D (GeneID 5147),SID405526697,Rucaparib,OCI-P5x (serous),2,80.7,inactive
PDE6D (GeneID 5147),SID405526697,Rucaparib,OCI-P5x (serous),3,69.9,active
PDE6D (GeneID 5147),SID405526697,Vehicle,OCI-C5x (clear cell),1,47.3,active
PDE6D (GeneID 5147),SID405526697,Vehicle,OCI-C5x (clear cell),2,52.5,active
PDE6D (GeneID 5147),SID405526697,Vehicle,OCI-C5x (clear cell),3,41.3,active
PDE6D (GeneID 5147),SID405526697,Vehicle,OCI-P5x (serous),1,74.9,active
PDE6D (GeneID 5147),SID405526697,Vehicle,OCI-P5x (serous),2,79.2,active
PDE6D (GeneID 5147),SID405526697,Vehicle,OCI-P5x (serous),3,80.7,inactive
PLCD4 (GeneID 84812),SID405526711,Rucaparib,OCI-C5x (clear cell),1,62.7,active
PLCD4 (GeneID 84812),SID405526711,Rucaparib,OCI-C5x (clear cell),2,61.9,active
PLCD4 (GeneID 84812),SID405526711,Rucaparib,OCI-C5x (clear cell),3,47.9,active
PLCD4 (GeneID 84812),SID405526711,Rucaparib,OCI-P5x (serous),1,52.7,active
PLCD4 (GeneID 84812),SID405526711,Rucaparib,OCI-P5x (serous),2,49.9,active
PLCD4 (GeneID 84812),SID405526711,Rucaparib,OCI-P5x (serous),3,51,active
PLCD4 (GeneID 84812),SID405526711,Vehicle,OCI-C5x (clear cell),1,60.7,active
PLCD4 (GeneID 84812),SID405526711,Vehicle,OCI-C5x (clear cell),2,51.2,active
PLCD4 (GeneID 84812),SID405526711,Vehicle,OCI-C5x (clear cell),3,61.9,active
PLCD4 (GeneID 84812),SID405526711,Vehicle,OCI-P5x (serous),1,66.2,active
PLCD4 (GeneID 84812),SID405526711,Vehicle,OCI-P5x (serous),2,66.9,active
PLCD4 (GeneID 84812),SID405526711,Vehicle,OCI-P5x (serous),3,66.2,active
PTPRC (GeneID 5788),SID405527212,Rucaparib,OCI-C5x (clear cell),1,37.8,active
PTPRC (GeneID 5788),SID405527212,Rucaparib,OCI-C5x (clear cell),2,39.7,active
PTPRC (GeneID 5788),SID405527212,Rucaparib,OCI-C5x (clear cell),3,33.5,active
PTPRC (GeneID 5788),SID405527212,Rucaparib,OCI-P5x (serous),1,42.7,active
PTPRC (GeneID 5788),SID405527212,Rucaparib,OCI-P5x (serous),2,34.1,active
PTPRC (GeneID 5788),SID405527212,Rucaparib,OCI-P5x (serous),3,43.8,active
PTPRC (GeneID 5788),SID405527212,Vehicle,OCI-C5x (clear cell),1,45.1,active
PTPRC (GeneID 5788),SID405527212,Vehicle,OCI-C5x (clear cell),2,31.8,active
PTPRC (GeneID 5788),SID405527212,Vehicle,OCI-C5x (clear cell),3,38.4,active
PTPRC (GeneID 5788),SID405527212,Vehicle,OCI-P5x (serous),1,35.7,active
PTPRC (GeneID 5788),SID405527212,Vehicle,OCI-P5x (serous),2,58.4,active
PTPRC (GeneID 5788),SID405527212,Vehicle,OCI-P5x (serous),3,68.1,active
DDX4 (GeneID 54514),SID405528187,Rucaparib,OCI-C5x (clear cell),1,64.7,active
DDX4 (GeneID 54514),SID405528187,Rucaparib,OCI-C5x (clear cell),2,50.6,active
DDX4 (GeneID 54514),SID405528187,Rucaparib,OCI-C5x (clear cell),3,44.5,active
DDX4 (GeneID 54514),SID405528187,Rucaparib,OCI-P5x (serous),1,64.5,active
DDX4 (GeneID 54514),SID405528187,Rucaparib,OCI-P5x (serous),2,64.8,active
DDX4 (GeneID 54514),SID405528187,Rucaparib,OCI-P5x (serous),3,62.7,active
DDX4 (GeneID 54514),SID405528187,Vehicle,OCI-C5x (clear cell),1,35.7,active
DDX4 (GeneID 54514),SID405528187,Vehicle,OCI-C5x (clear cell),2,41.2,active
DDX4 (GeneID 54514),SID405528187,Vehicle,OCI-C5x (clear cell),3,36.9,active
DDX4 (GeneID 54514),SID405528187,Vehicle,OCI-P5x (serous),1,49.8,active
DDX4 (GeneID 54514),SID405528187,Vehicle,OCI-P5x (serous),2,57,active
DDX4 (GeneID 54514),SID405528187,Vehicle,OCI-P5x (serous),3,57.5,active
NEK11 (GeneID 79858),SID405527925,Rucaparib,OCI-C5x (clear cell),1,47.9,active
NEK11 (GeneID 79858),SID405527925,Rucaparib,OCI-C5x (clear cell),2,46.9,active
NEK11 (GeneID 79858),SID405527925,Rucaparib,OCI-C5x (clear cell),3,50.5,active
NEK11 (GeneID 79858),SID405527925,Rucaparib,OCI-P5x (serous),1,91.5,inactive
NEK11 (GeneID 79858),SID405527925,Rucaparib,OCI-P5x (serous),2,81.8,inactive
NEK11 (GeneID 79858),SID405527925,Rucaparib,OCI-P5x (serous),3,75.3,active
NEK11 (GeneID 79858),SID405527925,Vehicle,OCI-C5x (clear cell),1,124,inactive
NEK11 (GeneID 79858),SID405527925,Vehicle,OCI-C5x (clear cell),2,61.3,active
NEK11 (GeneID 79858),SID405527925,Vehicle,OCI-C5x (clear cell),3,52.9,active
NEK11 (GeneID 79858),SID405527925,Vehicle,OCI-P5x (serous),1,70.1,active
NEK11 (GeneID 79858),SID405527925,Vehicle,OCI-P5x (serous),2,65.3,active
NEK11 (GeneID 79858),SID405527925,Vehicle,OCI-P5x (serous),3,79.3,active

Entries above whose target name starts with N or n (12):
gene,PubChem SID,rucaparib or vehicle,cell line,technical replicate,"viability, normalised (%)",outcome
NEK11 (GeneID 79858),SID405527925,Rucaparib,OCI-C5x (clear cell),1,47.9,active
NEK11 (GeneID 79858),SID405527925,Rucaparib,OCI-C5x (clear cell),2,46.9,active
NEK11 (GeneID 79858),SID405527925,Rucaparib,OCI-C5x (clear cell),3,50.5,active
NEK11 (GeneID 79858),SID405527925,Rucaparib,OCI-P5x (serous),1,91.5,inactive
NEK11 (GeneID 79858),SID405527925,Rucaparib,OCI-P5x (serous),2,81.8,inactive
NEK11 (GeneID 79858),SID405527925,Rucaparib,OCI-P5x (serous),3,75.3,active
NEK11 (GeneID 79858),SID405527925,Vehicle,OCI-C5x (clear cell),1,124,inactive
NEK11 (GeneID 79858),SID405527925,Vehicle,OCI-C5x (clear cell),2,61.3,active
NEK11 (GeneID 79858),SID405527925,Vehicle,OCI-C5x (clear cell),3,52.9,active
NEK11 (GeneID 79858),SID405527925,Vehicle,OCI-P5x (serous),1,70.1,active
NEK11 (GeneID 79858),SID405527925,Vehicle,OCI-P5x (serous),2,65.3,active
NEK11 (GeneID 79858),SID405527925,Vehicle,OCI-P5x (serous),3,79.3,active
